Source: PubChem BioAssay AID2685 (National Center for Advancing Translational Sciences (NCATS), 2010)
The other results are listed elsewhere or left out. The main result of the screen is listed elsewhere. These columns were measured beside it and carry no call. Most of these compounds were active or inconclusive in the main read-out, so they are no random draw. Potencies come from curve fits of mixed quality, noted in brackets.

Experiment: qHTS Assay for Lipid Storage Modulators in Drosophila S3 Cells;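 on cell number change: cells counted by Cell Tracker Red CMTPX staining in the red channel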
Conditions: BODIPY lipid droplet fluorescence, 18-24 h; for cell number change: measured here: cell count max response, cells fed with added oleic acid
Method in brief: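 Drosophila S3 cells got compounds at several concentrations plus oleic acid (400 uM solution). Laser-scanning cytometry with 488 nm excitation read lipid droplets at 500-530 nm and cells at 575-640 nm. Percent activity was relative to 20 uM Triacsin C.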

[1] = measured here: cell number channel AC50, cells fed with added oleic acid
[2] = measured here: lipid fluorescence (Fed channel) AC50, cells fed with added oleic acid

| SMILES | cell number change | AC50 [1] | AC50 [2] |
| --- | --- | --- | --- |
| Cc1cc(CSc2ccccc2)ccc1NC(=O)c1ccc(C)c([N+](=O)[O-])c1 | 4.89% |  |  |
| Cc1ccc(-c2cc(-c3ccc(F)cc3)n[nH]2)c(O)c1 | -51.6% | 16400 nM [falling, partial curve] | 16400 nM [falling, partial curve] |
| CCOc1cc(N2CCOCC2)c(OCC)cc1NC(=O)Cn1nc(C)c([N+](=O)[O-])c1C | 1.88% |  | 1160 nM [rising, partial curve, poor fit] |
| O=C1CCCC2=C1C(c1ccncc1)n1c(nc3ccccc31)N2 (configuration not stated) | 120% | 25900 nM [rising, single point] |  |
| Cc1cc(C)c(C(=O)CSc2n[nH]c(=O)n2C2CC2)cc1C | 44.4% | 8200 nM [rising, partial curve] | 9200 nM [rising, partial curve] |
| S=C1NC(c2ccccc2)=NCN1c1ccc(Cl)cc1 | 22.3% |  | 1640 nM [rising, partial curve] |
| COc1ccc(CCNC(=O)COC(=O)Cn2cnc3ccccc32)cc1OC |  |  | 18400 nM [rising, single point] |
| CN(C)c1ccc(C(=O)OCC(=O)Nc2ccc(S(N)(=O)=O)cc2)cc1 | -31.8% | 103 nM [falling, full curve, poor fit] | 4.61 nM [falling, full curve, poor fit] |
| COC(=O)c1ccccc1NC(=O)C1CC(c2ccc(F)cc2)=NO1 (configuration not stated) | -45.4% |  |  |
| CCOc1ccc2nc(-c3ccccc3)nc(SCC(=O)Nc3ncc(C)s3)c2c1 | 81% | 1460 nM [rising, full curve] | 517 nM [rising, full curve] |
| CCC(Sc1nnnn1C)C(=O)Nc1ccc(C(C)=O)cc1 (configuration not stated) | -3.86% |  | 5170 nM [falling, single point] |
| CCC1CCCCN1CCNC(=O)CCS(=O)(=O)c1ccc(Br)cc1 (configuration not stated) | -19.6% |  | 2310 nM [falling, full curve] |
| Fc1ccccc1N1CCN(C(c2ccncc2)c2nnnn2C2CCCC2)CC1 (configuration not stated) | -12.2% |  |  |
| CCCCN(C)Cc1c(C)[nH]c2ccc(Cl)cc2c1=O |  |  | 1460 nM [falling, partial curve] |
| CCOC(=O)c1sc2nc(C3CC3)cc(-c3ccc(F)cc3)c2c1N | -22.1% |  |  |
| Cc1cc(=O)n2nc(N3CCCC3C(=O)Nc3ccc(C(C)C)cc3)sc2n1 (configuration not stated) | 12.1% |  | 164 nM [falling, full curve, poor fit] |
| CCOc1ccccc1Nc1ccc(C(=O)O)cc1NC(C)=O | 18.8% |  | 16400 nM [rising, partial curve] |

Two records picked at random from those above, as already listed:

| SMILES | cell number change | AC50 [1] | AC50 [2] |
| --- | --- | --- | --- |
| CCCCN(C)Cc1c(C)[nH]c2ccc(Cl)cc2c1=O |  |  | 1460 nM [falling, partial curve] |
| CCOc1ccc2nc(-c3ccccc3)nc(SCC(=O)Nc3ncc(C)s3)c2c1 | 81% | 1460 nM [rising, full curve] | 517 nM [rising, full curve] |
